These results are taken from US20240368301A1.

Results are given in words; binding and its absence hold for the method and conditions named. Some binding calls cover weakened binding; strength is not graded here.

The target of this assay is cynomolgus macaques SIRPα-his (ACRO, Cat #SIA-C52H7) (cynomolgus macaque). Nature of the assay: BLI (Octet RED 96).

B1: AD4-12 (antibody, V domains shown)
VH: EVQLEESGPGLVAPSQSLSITCTVSGFSLTGYGVNWVRQPPGKGLEWLGIIWGDGSTDYNSALKSRLSISKDNSKSQVFLKMNSLQSDDTARYYCARAGKMDYWGQGTSVTVSS
VL: DIVLTQSPASLAVSLGQGATISCRASESVDSYGNSFMHWYQQKPGQPPKPLIYLASNLESGVPARFSGSGSRTDFTLTIDPVEADDAATYYCQQNNEYPWTFGGGTKLEIK
B1: the binding result was “binds”.
